# Measurements taken from PubChem BioAssay AID2685 (National Center for Advancing Translational Sciences (NCATS), 2010).
# This is one part of the list. These are further read-outs of the screen, such as a control signal, another cell line or another target. No call is given for them. Compounds called inactive in the main read-out are mostly missing here. Potencies come from curve fits of mixed quality, noted in brackets. Where a SMILES comes first, the peptide text is derived from it. The star is where a group is joined. OPac = O=C(CO*)c1ccccc1; Bz = O=C(c1ccccc1)*
# Assay: qHTS Assay for Lipid Storage Modulators in Drosophila S3 Cells;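 for cell number change: cells counted by Cell Tracker Red CMTPX staining in the red channel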
# Conditions: BODIPY lipid droplet fluorescence, 18-24 h; for cell number change: measured here: cell count max response, cells fed with added oleic acid
# How it was run: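 Drosophila S3 cells got compounds at several concentrations plus oleic acid (400 uM solution). Laser-scanning cytometry with 488 nm excitation read lipid droplets at 500-530 nm and cells at 575-640 nm. Percent activity was relative to 20 uM Triacsin C.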
# [1] = measured here: lipid fluorescence (Fed channel) AC50, cells fed with added oleic acid
# [2] = measured here: cell number channel AC50, cells fed with added oleic acid
Structure (SMILES),cell number change,AC50 [1],AC50 [2]
Cc1ccc(S(=O)(=O)CCC(=O)OCC(=O)N(Cc2ccccc2)C(C)C)cc1,-9.66%,"0.116 µM [falling, full curve, poor fit]",–
COc1c(/C=C2\SC(=Nc3ccccc3Cl)NC2=O)cccc1[N+](=O)[O-],-47%,–,"8.2 µM [falling, partial curve, poor fit]"
CCN1CCCC1CNC(=O)C(=O)NC(C)c1ccccc1 (stereo unspecified),3.4%,"29.1 µM [rising, single point]",–
Cc1nn(C)c(C)c1NS(=O)(=O)c1ccccc1,9.5%,"2.59 µM [falling, full curve]",–
CC(NC(=O)c1cc2c(cc1Cl)N1CCCCCC1=NS2(=O)=O)c1ccc(S(N)(=O)=O)cc1 (stereo unspecified),-31%,–,"4.11 µM [falling, full curve, poor fit]"
Cc1cc(C)c2[nH]c(=O)c(C(c3nnnn3Cc3ccc4c(c3)OCO4)N3CCCC3)cc2c1 (stereo unspecified),–,"0.92 µM [rising, full curve]","5.8 µM [rising, single point]"
CCc1ccccc1NC(=O)N[C@@H](C)C(=O)O,–,–,"0.651 µM [falling, single point]"
COc1ccc(CNC(=O)CCC(=O)c2ccccc2)cc1,-30.8%,–,"2.59 µM [falling, full curve, poor fit]"
COc1ccc(NC(=O)CN(C)C(=O)c2ccccc2OCC(=O)Nc2cccc(C(F)(F)F)c2)cc1,–,"3.26 µM [rising, single point]",–
O=C(CSc1nnc(-c2cccs2)n1-c1ccccc1)Nc1ccccc1,-11.3%,"6.51 µM [falling, single point]","5.8 µM [falling, single point]"
C[C@H](NC(=O)COc1ccc(Cl)cc1)C(=O)N1CCC2(CC1)NCCc1[nH]cnc12,64.7%,"10.3 µM [rising, partial curve]","32.6 µM [rising, single point]"
O=C(c1ccc(F)cc1)c1cn[nH]c1-c1ccccc1O,-7.25%,"1.84 µM [falling, single point]",–
COc1cccc(NC(=O)CSc2nc3ncc(Br)cc3[nH]2)c1,-11.3%,"4.11 µM [falling, single point]",–
O=C(CNC(=O)c1ccccc1)NCC(=O)OCC(=O)c1ccccc1 (Bz-Gly-Gly-OPac),10.6%,"29.1 µM [falling, single point]",–
C=CCc1c(C)nc2cc(-c3ccccc3)[nH]n2c1=O,–,"6.51 µM [rising, partial curve]",–
CCCCn1c(=O)c(C(=O)OCC)c(O)c2ccccc21,42.9%,"25.9 µM [falling, partial curve]","0.116 µM [rising, full curve]"
CCOC(=O)N1CCN(Cc2nc3c(c(=O)n(C)c(=O)n3C)n2CCC(C)C)CC1,-1.63%,"0.82 µM [falling, full curve]","0.82 µM [falling, full curve, poor fit]"
O=C(CCOc1ccccc1)NCC(c1ccco1)N1CCCCC1 (stereo unspecified),-5.17%,"29.1 µM [falling, single point]",–
CCN1CCN(C(=O)C2CCN(Cc3nc(-c4cccc(Cl)c4)oc3C)CC2)CC1,15.4%,–,–
Cc1cccc2cc(C(c3nnnn3Cc3ccccc3)N3CCCc4ccccc43)c(=O)[nH]c12 (stereo unspecified),–,"3.66 µM [rising, partial curve]","3.66 µM [rising, single point]"
C[C@@H]1C=C(C(=O)NCc2nc3ccccc3[nH]2)O[C@H](OCc2ccc(CO)cc2)C1,-5.68%,"0.411 µM [rising, single point]",–
COc1ccc(NC(=O)COc2ccc(CNCCCN3CCOCC3)cc2OC)cc1,-17.4%,–,–
COCCNC(=O)Cc1c(C)c2cc3c(cc2oc1=O)OC(C)(C)CC3,-22.9%,"29.1 µM [falling, single point]",–
CC1CCCN(CC(=O)Nc2ccc(S(=O)(=O)N3CCCCCC3)cc2)C1 (stereo unspecified),7.01%,–,–
OCCN1CCN(CC(O)COCC2COc3ccccc3O2)CC1 (stereo unspecified),-28.1%,–,–
O=C(CN1CCN(c2ccccc2O)CC1)NC(=O)NC1CCCC1,-6.64%,"0.164 µM [falling, full curve, poor fit]",–
CC(C)CCN1C(=O)C2(OCCCO2)c2cc(Cl)ccc21,25.4%,"29.1 µM [rising, single point]",–
Cc1oc(CC(C)C)c(CN)c1C(=O)O,-25.9%,"0.517 µM [falling, full curve]",–
O=c1[nH][nH]c(C(F)(F)F)c1C=NCc1ccc(Cl)cc1,23.6%,"16.4 µM [rising, partial curve]",–
COc1ccc(-n2c(Cc3cccn3C)nnc2SCC(=O)NC2CCCC2)cc1,–,"0.00517 µM [falling, full curve, poor fit]",–

# Filtered by structure: the compounds so far containing an aryl methoxy group
Structure (SMILES),cell number change,AC50 [1],AC50 [2]
COc1c(/C=C2\SC(=Nc3ccccc3Cl)NC2=O)cccc1[N+](=O)[O-],-47%,–,"8.2 µM [falling, partial curve, poor fit]"
COc1ccc(CNC(=O)CCC(=O)c2ccccc2)cc1,-30.8%,–,"2.59 µM [falling, full curve, poor fit]"
COc1ccc(NC(=O)CN(C)C(=O)c2ccccc2OCC(=O)Nc2cccc(C(F)(F)F)c2)cc1,–,"3.26 µM [rising, single point]",–
COc1cccc(NC(=O)CSc2nc3ncc(Br)cc3[nH]2)c1,-11.3%,"4.11 µM [falling, single point]",–
COc1ccc(NC(=O)COc2ccc(CNCCCN3CCOCC3)cc2OC)cc1,-17.4%,–,–
COc1ccc(-n2c(Cc3cccn3C)nnc2SCC(=O)NC2CCCC2)cc1,–,"0.00517 µM [falling, full curve, poor fit]",–
